Reference: publication PMC7413384
These are yes or no findings as the source states them, for the method shown. In cells and extracts the contact can be indirect. Some binding calls cover weakened binding; strength is not graded here. For some of these results: Sequences can lack the tags named with a protein. Values belong to the molecule of their own block, whether it stands above or below them.

By UniProt entry, the sequences of proteins in these tests, tags left out.
UniProt P68400: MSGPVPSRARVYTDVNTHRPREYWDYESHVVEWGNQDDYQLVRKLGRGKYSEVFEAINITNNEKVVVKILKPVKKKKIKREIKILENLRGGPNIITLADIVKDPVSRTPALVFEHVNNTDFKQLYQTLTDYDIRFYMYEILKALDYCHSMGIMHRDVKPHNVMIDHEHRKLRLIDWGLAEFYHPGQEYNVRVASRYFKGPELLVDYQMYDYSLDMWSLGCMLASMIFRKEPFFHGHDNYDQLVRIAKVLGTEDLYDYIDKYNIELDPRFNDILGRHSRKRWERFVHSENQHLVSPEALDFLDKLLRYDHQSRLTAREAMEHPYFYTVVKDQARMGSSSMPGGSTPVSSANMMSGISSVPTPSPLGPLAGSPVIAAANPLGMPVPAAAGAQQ

Experiments:
[1] = target: T1, NIP30 (in co-immunoprecipitations where the construct is not told) (human) (UniProt Q9GZU8); assay: co-IP; co-immunoprecipitation of CK2 catalytic subunits with NIP30 (Supplementary Fig. 5b)
T1 sequence: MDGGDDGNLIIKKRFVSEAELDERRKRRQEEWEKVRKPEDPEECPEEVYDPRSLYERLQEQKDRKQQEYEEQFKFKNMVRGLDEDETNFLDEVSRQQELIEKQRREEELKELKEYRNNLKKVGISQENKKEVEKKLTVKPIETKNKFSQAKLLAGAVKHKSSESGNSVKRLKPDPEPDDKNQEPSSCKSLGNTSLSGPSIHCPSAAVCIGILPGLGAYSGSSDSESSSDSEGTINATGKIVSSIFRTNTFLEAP

HA-NIP30 (human) = target: T2, HA-NIP30 (human) (UniProt Q9GZU8); assay: co-IP; 293T cells transfected with HA-NIP30 and flag-CDC25A or a flag-control vector for 36 h; immunoprecipitation with Flag-M2 agarose beads or HA beads
T2 sequence: T1 sequence

flag-CDC25A (human) = target: T3, flag-CDC25A (human) (UniProt P30304); assay: as above
T3 sequence: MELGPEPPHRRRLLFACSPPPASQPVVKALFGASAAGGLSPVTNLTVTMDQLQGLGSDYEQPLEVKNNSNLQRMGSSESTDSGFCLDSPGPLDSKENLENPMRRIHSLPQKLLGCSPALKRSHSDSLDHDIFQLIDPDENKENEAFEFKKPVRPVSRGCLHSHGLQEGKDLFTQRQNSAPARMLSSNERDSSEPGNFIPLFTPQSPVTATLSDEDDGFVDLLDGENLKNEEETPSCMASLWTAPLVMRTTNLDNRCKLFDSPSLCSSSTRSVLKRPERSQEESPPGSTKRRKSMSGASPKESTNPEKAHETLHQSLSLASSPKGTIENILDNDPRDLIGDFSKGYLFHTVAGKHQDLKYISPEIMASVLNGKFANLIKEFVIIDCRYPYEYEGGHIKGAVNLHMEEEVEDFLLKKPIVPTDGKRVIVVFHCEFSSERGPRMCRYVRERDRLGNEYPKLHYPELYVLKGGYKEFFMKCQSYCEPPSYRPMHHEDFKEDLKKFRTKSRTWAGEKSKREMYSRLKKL

Molecule: CK2α (Casein Kinase 2 catalytic subunit) (from UniProt P68400 1-391) (enzyme)
binding [1]: binds

Molecule: CK2α’ (Casein Kinase 2 catalytic subunit) (from UniProt P19784 1-350) (enzyme)
binding [1]: binds

Results, then the molecule that gave them:

binding (HA-NIP30 (human)): binds
B1: flag-CDC25A (enzyme, UniProt P30304 1-524)
chain: T3 sequence

binding (flag-CDC25A (human)): binds
B2: HA-NIP30 (protein, UniProt Q9GZU8 1-254)
chain: T1 sequence
